Consider two molecules from PMC4045890.

For assay [1], the target named is T1, TAP-tagged Fep1 (S. pombe) (UniProt Q10134).
T1 sequence: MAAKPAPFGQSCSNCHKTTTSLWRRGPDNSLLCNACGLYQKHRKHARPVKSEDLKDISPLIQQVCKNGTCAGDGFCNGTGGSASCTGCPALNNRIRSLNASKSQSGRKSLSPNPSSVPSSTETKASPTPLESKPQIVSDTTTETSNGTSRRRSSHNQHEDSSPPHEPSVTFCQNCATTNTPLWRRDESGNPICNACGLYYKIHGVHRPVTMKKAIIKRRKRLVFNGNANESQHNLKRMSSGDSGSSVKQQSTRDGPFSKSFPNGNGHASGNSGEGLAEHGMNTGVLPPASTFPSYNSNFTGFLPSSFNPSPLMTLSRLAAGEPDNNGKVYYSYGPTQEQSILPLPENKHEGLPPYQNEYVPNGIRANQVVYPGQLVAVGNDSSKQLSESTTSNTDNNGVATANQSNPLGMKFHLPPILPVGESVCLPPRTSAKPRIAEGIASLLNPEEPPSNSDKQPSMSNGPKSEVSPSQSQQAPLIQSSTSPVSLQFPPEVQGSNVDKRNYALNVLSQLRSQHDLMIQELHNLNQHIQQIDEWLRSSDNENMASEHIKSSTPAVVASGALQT
Kind of assay: co-IP; TAP pull-down: whole-cell extracts (~2.7 mg protein) of S. pombe cells co-expressing the tagged proteins, treated with Dip (250 µM) or FeCl3 (100 µM) for 30 min; IgG-Sepharose 6 Fast-Flow beads hold TAP or TAP-Fep1, 18 h at 4°C; lysis buffer 10 mM Tris-HCl pH 7.9, 0.1% Triton X-100, 0.5 mM EDTA, 20% glycerol, 100 mM NaCl; immunoblot with anti-Myc, anti-GFP and anti-α-tubulin.

Assay [2] has as its target T2, VN-tagged Fep1 (S. pombe) (UniProt Q10134).
T2 sequence: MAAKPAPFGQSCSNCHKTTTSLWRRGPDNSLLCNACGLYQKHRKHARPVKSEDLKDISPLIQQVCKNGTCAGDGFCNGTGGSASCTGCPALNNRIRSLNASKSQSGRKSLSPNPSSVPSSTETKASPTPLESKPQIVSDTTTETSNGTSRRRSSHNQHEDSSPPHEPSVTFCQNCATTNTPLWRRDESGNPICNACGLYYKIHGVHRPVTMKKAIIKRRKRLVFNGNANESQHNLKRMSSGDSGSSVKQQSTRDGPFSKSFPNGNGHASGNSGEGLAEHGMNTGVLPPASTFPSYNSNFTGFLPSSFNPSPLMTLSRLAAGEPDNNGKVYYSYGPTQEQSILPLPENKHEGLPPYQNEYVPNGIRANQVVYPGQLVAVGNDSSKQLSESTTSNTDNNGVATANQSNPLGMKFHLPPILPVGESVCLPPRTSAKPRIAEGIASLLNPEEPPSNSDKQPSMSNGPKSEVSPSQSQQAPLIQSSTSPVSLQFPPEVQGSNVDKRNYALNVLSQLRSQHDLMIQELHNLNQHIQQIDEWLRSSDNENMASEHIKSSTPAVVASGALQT
Put plainly: split reporter; BiFC with Venus fragments VN and VC in living S. pombe cells, iron-starved and iron-replete; fluorescence microscopy with Hoechst stain.

These are yes or no findings as the source states them, for the method shown. Binding seen in cells or lysates may run through a third protein. Some entries that bind do so weakly or less than the wild type. Where a sequence is shown, tags or fusion partners need not be part of it.

B1: GFP-tagged Grx4 (protein, UniProt O74790 1-244)
chain: MSVEITFVEQFQEILQNGKEQIILLNFYAPWAAPCKQMNQVFDQFAKDTKNAVFLKIEAEKFSDIAESFDVNAVPLFVLIHGAKVLARISGANPQKLKAAIDEYIQPLISQISSTNASVETQVNSVQTTNTTSNTSKAPNGLDSELNERLSTLTNAHNVMLFLKGTPSEPACGFSRKLVGLLREQNVQYGFFNILADDSVRQGLKVFSDWPTFPQLYIKGEFVGGLDIVSEMIENGELQEMLPN
B1: in assay [1], the binding result is “binds”.

B2: Ctr4-VC (protein, UniProt O94722 1-289)
chain: MSFFSAAKQSLGNSLIKLGTSMAQNSQGPVDDSSLSQLENLLPPLQILTARAAMAAMNMSNDTSMSGMNMTNSTTPMSGMNMTNSTTSMSGMNMSNSTTSMSGMNMTNTTTTAKASSCKLSMYWNWYTIDACFITKHWHITSKHMFVGSIFGIIFMMMALELVRRGQREFDRWCVRRFSPASNSCCHSGAPVHSGPSMALRIFLHFLRSCFYLVQYIVAYIAMLLAMYYNGYVILFLFCGTFFGYFLFGADTISTKASSSVQTKTIVQVADEKHEHDSSQYSDTTPTTE
Consider B2, for which the binding result in assay [2] is reported as “no binding”.
